Paper PMC6744468
Results are given in words; binding and its absence hold for the method and conditions named. In cells and extracts the contact can be indirect. Here binding means that the protein was enriched with, or labelled near, the bait; the list need not be complete.

The chains behind the UniProt entries cited, without tags or fusion partners.
UniProt P60520: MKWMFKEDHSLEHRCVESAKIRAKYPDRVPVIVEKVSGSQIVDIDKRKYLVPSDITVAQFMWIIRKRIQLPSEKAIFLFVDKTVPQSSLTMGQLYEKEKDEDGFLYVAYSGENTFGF
UniProt Q15154: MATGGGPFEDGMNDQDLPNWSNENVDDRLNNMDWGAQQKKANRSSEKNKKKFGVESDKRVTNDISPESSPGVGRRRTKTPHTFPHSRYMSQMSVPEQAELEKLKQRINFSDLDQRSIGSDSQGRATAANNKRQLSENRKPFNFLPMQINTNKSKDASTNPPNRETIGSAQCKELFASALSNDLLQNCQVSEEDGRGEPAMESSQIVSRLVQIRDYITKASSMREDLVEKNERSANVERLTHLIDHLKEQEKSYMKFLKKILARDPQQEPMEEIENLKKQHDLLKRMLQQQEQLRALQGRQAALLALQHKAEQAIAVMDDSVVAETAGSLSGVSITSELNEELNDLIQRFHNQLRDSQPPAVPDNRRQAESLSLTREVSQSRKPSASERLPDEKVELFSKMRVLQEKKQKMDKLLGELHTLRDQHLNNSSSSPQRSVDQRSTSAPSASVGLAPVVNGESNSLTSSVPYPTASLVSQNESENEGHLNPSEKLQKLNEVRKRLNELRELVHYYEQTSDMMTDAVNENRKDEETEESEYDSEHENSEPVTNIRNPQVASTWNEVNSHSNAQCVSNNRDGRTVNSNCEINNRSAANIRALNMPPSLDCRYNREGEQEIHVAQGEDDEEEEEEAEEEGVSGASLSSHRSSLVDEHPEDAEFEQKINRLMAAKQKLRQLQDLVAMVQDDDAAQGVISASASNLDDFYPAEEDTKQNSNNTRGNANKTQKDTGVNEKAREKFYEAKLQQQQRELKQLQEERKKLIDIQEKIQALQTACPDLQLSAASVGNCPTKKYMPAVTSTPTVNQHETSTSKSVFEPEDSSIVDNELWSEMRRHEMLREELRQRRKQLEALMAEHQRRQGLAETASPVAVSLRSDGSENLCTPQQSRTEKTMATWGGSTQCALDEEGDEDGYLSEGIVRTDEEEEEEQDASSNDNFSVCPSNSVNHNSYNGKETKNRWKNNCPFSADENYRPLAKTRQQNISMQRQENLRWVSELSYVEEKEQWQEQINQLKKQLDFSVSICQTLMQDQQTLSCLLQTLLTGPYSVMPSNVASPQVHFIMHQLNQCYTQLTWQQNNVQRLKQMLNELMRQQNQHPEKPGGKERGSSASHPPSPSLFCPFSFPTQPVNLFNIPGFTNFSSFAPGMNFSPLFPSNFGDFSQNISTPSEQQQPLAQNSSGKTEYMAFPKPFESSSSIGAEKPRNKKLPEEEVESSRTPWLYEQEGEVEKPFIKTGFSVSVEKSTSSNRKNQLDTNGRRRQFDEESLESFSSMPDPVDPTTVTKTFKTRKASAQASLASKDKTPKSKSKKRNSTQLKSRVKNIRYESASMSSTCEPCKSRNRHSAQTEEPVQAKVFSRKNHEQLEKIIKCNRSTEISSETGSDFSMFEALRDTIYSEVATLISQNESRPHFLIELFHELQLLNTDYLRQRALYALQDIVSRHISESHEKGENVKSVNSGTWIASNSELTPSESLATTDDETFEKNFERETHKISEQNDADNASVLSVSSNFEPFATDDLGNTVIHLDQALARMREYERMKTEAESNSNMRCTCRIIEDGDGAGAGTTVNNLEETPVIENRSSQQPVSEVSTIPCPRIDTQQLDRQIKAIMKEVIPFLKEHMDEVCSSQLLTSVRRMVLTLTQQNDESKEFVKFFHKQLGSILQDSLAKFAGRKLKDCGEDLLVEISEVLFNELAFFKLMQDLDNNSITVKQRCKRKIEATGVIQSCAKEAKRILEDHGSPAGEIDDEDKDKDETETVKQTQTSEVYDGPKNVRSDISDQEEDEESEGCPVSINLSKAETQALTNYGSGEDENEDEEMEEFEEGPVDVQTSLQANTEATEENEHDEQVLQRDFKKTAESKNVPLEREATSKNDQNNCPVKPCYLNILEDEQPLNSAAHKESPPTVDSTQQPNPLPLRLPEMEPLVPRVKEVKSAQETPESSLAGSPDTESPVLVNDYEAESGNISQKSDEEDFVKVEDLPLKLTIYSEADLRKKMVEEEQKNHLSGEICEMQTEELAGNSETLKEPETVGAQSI

Molecular target: GFP-GABARAPL2 (human) (UniProt P60520)
Test: affinity purification with mass spectrometry; GFP-trap MA beads on lysates of doxycycline-induced stable MCF7 cells (GFP-GABARAP, GFP-GABARAPL2, GFP-LC3B or GFP-3xFLAG control), standard IP lysis buffer (50 mM HEPES pH 7.4, 100 mM NaCl, 0.5% Triton-X100), 90 min, LC-MS, biological quadruplicates

pericentriolar material 1 (PCM1), endogenous (from UniProt Q15154 1-2024)
binding: binds
